No constants are given. Whether binding was seen depends on the method and setting. In cells and extracts the contact can be indirect. Some results given as binding are weak or reduced against the parent protein; the word gives no strength.
Target: full length human KMO tagged with RFP (flKMO-RFP) (human) (UniProt O15229)
Assay: co-IP; RFP-Trap Agarose from lysates of HEK293T cells transfected for 48 h; 10 mM Tris-HCl pH 7.5, 150 mM NaCl, 0.5 mM EDTA, 0.05% n-dodecyl β-D-maltoside; 1 h at 4 °C; blot with anti-HTT

By UniProt entry, the sequences of proteins in these tests, tags left out.
UniProt O15229: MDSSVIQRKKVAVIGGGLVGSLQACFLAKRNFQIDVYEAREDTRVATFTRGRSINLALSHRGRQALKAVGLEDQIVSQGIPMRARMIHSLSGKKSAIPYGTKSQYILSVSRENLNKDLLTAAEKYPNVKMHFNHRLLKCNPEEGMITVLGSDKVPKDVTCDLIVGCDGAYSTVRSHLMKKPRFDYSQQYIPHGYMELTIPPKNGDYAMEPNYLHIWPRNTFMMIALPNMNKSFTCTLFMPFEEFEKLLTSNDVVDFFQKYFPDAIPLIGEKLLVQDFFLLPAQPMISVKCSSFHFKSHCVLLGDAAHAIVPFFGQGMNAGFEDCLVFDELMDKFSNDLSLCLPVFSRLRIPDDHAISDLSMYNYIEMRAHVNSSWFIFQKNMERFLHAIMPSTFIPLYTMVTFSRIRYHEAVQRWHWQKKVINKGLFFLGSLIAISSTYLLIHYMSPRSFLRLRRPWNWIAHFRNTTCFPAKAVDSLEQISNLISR
UniProt P42858: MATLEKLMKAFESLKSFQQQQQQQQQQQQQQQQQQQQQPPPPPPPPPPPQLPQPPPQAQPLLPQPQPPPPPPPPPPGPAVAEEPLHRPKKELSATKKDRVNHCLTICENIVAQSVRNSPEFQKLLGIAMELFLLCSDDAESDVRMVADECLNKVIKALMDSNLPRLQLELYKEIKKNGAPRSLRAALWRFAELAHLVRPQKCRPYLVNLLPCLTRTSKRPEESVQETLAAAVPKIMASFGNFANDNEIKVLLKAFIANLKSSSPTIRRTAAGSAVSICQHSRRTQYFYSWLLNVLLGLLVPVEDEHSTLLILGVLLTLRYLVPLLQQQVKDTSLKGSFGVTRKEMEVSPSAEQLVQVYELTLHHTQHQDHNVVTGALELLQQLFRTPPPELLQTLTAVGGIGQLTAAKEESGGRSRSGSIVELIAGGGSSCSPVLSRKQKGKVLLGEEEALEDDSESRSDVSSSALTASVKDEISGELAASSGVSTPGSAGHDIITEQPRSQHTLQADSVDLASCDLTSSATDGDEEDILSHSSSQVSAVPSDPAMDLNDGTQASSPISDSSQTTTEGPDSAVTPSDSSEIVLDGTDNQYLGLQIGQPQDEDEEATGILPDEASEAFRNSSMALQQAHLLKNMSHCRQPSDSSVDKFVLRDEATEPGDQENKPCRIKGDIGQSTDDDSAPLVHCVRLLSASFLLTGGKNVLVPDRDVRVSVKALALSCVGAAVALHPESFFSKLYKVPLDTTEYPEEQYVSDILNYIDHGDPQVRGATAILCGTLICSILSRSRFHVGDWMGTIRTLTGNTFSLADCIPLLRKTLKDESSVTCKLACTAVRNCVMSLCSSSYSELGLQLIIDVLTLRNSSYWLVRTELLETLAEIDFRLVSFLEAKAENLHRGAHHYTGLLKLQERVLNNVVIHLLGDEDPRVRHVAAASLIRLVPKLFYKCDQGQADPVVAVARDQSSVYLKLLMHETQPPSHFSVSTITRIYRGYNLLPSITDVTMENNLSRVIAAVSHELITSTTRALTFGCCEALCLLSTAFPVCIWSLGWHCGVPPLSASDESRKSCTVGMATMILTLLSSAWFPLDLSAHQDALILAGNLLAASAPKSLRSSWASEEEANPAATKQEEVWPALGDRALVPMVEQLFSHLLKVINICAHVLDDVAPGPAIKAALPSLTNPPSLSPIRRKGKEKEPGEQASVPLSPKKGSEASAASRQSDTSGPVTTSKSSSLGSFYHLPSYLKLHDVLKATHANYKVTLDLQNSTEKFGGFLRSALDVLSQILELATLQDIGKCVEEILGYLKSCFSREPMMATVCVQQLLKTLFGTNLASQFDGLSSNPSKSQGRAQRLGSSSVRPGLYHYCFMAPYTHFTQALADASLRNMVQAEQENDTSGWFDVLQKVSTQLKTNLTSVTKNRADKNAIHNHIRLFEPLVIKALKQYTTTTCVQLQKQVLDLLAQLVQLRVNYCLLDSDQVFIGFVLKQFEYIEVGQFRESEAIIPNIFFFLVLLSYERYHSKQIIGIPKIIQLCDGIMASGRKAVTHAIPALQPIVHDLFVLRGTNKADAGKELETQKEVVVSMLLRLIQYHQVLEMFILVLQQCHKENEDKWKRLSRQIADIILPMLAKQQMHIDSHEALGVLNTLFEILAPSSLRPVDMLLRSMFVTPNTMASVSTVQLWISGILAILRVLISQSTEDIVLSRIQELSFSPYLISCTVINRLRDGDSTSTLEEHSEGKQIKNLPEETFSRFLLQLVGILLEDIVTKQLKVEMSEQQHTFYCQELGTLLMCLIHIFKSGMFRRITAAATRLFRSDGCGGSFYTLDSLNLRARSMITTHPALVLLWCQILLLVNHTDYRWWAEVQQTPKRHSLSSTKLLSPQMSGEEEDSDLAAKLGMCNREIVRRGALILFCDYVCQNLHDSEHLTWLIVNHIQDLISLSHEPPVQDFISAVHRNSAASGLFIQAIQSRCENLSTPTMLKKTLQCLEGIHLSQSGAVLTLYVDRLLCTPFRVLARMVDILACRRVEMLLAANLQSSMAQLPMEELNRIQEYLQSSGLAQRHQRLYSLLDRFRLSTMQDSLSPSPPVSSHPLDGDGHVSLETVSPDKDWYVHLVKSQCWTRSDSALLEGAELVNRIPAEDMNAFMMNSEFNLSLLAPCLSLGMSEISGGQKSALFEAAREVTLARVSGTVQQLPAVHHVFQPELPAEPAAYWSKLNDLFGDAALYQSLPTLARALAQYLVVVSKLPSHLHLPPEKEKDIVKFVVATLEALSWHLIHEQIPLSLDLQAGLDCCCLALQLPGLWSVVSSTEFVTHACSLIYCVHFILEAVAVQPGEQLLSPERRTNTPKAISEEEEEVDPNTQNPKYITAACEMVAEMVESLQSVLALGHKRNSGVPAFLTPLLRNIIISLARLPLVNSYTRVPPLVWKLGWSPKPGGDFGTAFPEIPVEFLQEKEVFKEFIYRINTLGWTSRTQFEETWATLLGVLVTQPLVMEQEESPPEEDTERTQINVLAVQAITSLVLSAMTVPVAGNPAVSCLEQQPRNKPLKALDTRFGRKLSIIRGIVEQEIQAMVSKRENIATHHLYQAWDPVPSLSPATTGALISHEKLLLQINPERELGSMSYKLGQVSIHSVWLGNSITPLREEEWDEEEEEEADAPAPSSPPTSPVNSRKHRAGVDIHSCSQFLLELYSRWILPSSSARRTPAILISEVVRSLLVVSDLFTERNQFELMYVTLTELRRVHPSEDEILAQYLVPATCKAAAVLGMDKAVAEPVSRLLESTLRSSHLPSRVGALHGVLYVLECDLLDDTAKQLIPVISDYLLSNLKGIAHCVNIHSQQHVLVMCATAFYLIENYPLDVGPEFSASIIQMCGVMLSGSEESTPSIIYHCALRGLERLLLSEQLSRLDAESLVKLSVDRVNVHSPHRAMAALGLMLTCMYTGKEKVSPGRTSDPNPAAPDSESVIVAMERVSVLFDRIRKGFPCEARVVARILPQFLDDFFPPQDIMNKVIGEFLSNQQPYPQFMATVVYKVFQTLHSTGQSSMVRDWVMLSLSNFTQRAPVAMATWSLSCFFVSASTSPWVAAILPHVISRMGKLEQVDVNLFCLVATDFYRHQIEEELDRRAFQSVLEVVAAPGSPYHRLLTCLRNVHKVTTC

binding: binds
Substance: endogenous huntingtin (HTT) (from UniProt P42858 1-3142)

Source: publication PMC9496550
